The data set can be described thus: general procedure: Boc solid-phase peptide synthesis; chloromethylated divinylbenzene-styrene copolymer (Bio-Rad Merrifield resin), 2% cross linking, 0.47 millimoles of proli. The settings on record: whole synthesis, overall, scale of the general procedure 4.6 g of resin.

Some peptides are written in HELM: one residue between dots, names in brackets for other building blocks, links after the first $.

“PEPTIDE1{[pGlu].H.W.S.Y.[dL].L.R.P.[NHEt]}$$$$V2.0” registered an isolated yield of 25%.
